Data as given in PubChem BioAssay AID652243 (Drosophila RNAi Screening Center, 2013).

Aim: 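Fly regulators of androgen-dependent reporter output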 (primary screen)
Cells: Drosophila S2R+ cells
Reagent: long dsRNA against Drosophila genes
Time to read-out: 72 h (48 h, then 24 h hormone)
Treatment: synthetic androgen R1881 at 10 nM for 24 h
Detection: 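Firefly light from an androgen-responsive reporter and Renilla control light per well, raw and unnormalised, for each of two replicates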
Reading the numbers: firefly reporter light: higher = more light from androgen-responsive reporter; Renilla control light: higher = more constitutive control signal (cell number, transfection)
Call rule: 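Across duplicate plates, a knock-down whose log firefly/Renilla ratio shifted a set fold down or up from the GFP/LacZ control mean was a hit; the downward cut appears as both 1.5 and 3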
Calls: active = hit: reporter lowered or raised; inactive = no hit
The deposit covers about 24,000 reagents; below is an unselected part of those with a known target gene and a result. In the full data, 246 (1%) were called active. 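Plates not normalised; calls are printed but the firefly/Renilla ratio behind them is not deposited; fold cut for lowering reported inconsistently.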 Raw values are not corrected between plates. A plus sign joins genes that one reagent is predicted to hit. The record does not give: the amount of reagent.

firefly reporter light, replicate 1	firefly reporter light, replicate 2	Renilla control light, replicate 1	Renilla control light, replicate 2	Call	target	amplicon
3.34e5	2.89e5	3.60e6	3.16e6	inactive	CG13377	DRSC18622
4.47e5	3.61e5	3.09e6	2.05e6	inactive	Sap30	DRSC19916
1.25e6	1.03e6	2.39e6	2.54e6	inactive	CG8531	DRSC07209
9.92e5	1.56e6	1.82e6	2.36e6	inactive	Khc-73	DRSC07449
3.44e5	2.98e5	5.81e5	4.18e5	inactive	Khc-73	DRSC26819
9.71e5	8.39e5	1.27e6	1.28e6	inactive	Hdc	DRSC07439
4.39e5	4.59e5	1.16e6	9.79e5	inactive	Hdc	DRSC25907
1.02e5	1.71e5	7.50e5	1.03e6	inactive	CG5561	DRSC00688
5.84e5	8.11e5	4.97e6	4.33e6	inactive	CG14417	DRSC18638
8.52e5	1.03e6	2.13e6	1.83e6	inactive	CG16812	DRSC02519
7.12e5	7.02e5	9.14e5	9.11e5	inactive	CG16812	DRSC25180
3.89e5	3.98e5	8.36e5	7.98e5	inactive	prod	DRSC07667
4.60e5	4.04e5	2.35e5	4.44e5	inactive	prod	DRSC25498
7.37e5	6.51e5	1.84e6	1.28e6	inactive	ex	DRSC00817
5.47e5	4.20e5	6.34e5	5.47e5	inactive	ex	DRSC23963
1.16e5	48818	6.71e5	4.64e5	inactive	l(1)G0004	DRSC20486
1.98e5	1.52e5	1.77e6	1.87e6	inactive	CG9372	DRSC11068
85555	58305	7.88e5	4.03e5	inactive	CG1750	DRSC15240
1.98e5	89278	1.19e5	1.56e5	inactive	CG33722 + CG18749	DRSC12674
60449	74409	2.01e6	1.56e6	inactive	CG33722 + CG18749	DRSC15386
4.87e5	4.20e5	1.25e6	1.28e6	inactive	CG33722 + CG18749	DRSC28983
2.79e5	2.14e5	2.93e6	1.70e6	inactive	CG13047	DRSC09928
9.28e5	1.06e6	1.27e6	1.43e6	inactive	CG13047	DRSC25091
7.04e5	6.64e5	1.11e6	1.14e6	inactive	CG32727	DRSC17519
1.31e5	96592	9.44e5	5.93e5	inactive	CG42376 + cin	DRSC18752
5.37e5	5.03e5	8.74e5	1.16e6	inactive	CG42376 + cin	DRSC29294
3.65e5	3.35e5	1.87e6	2.97e6	inactive	GCS2beta	DRSC02960
3.65e5	2.36e5	9.31e5	9.27e5	inactive	GCS2beta	DRSC30037
53868	70448	6.47e5	6.13e5	inactive	CG33966	DRSC08256
8.95e5	9.03e5	1.07e6	1.19e6	inactive	CG33966	DRSC25718
4.72e5	3.99e5	2.81e6	2.61e6	inactive	SNRPG	DRSC20207
1.77e5	1.88e5	8.55e5	1.04e6	inactive	Ms	DRSC16041
4.72e5	3.46e5	1.38e6	1.26e6	inactive	Ms	DRSC29774
5.95e5	7.60e5	1.06e6	1.21e6	inactive	CG2608	DRSC02709
1.88e5	2.71e5	2.52e6	1.97e6	inactive	Clbn	DRSC14404
1.35e6	1.33e6	1.86e6	1.38e6	inactive	Alg2	DRSC08298
9.94e5	7.75e5	1.84e6	1.43e6	inactive	CG31752	DRSC22599
7.62e5	7.48e5	3.48e6	3.87e6	inactive	CG15040	DRSC19616
5.20e5	5.41e5	8.69e5	9.13e5	inactive	CG15040	DRSC21482
4.93e5	3.07e5	9.83e5	9.83e5	inactive	CG15040	DRSC29466

4 entries from above, arranged by “Renilla control light, replicate 2”, descending.
firefly reporter light, replicate 1	firefly reporter light, replicate 2	Renilla control light, replicate 1	Renilla control light, replicate 2	Call	target	amplicon
7.62e5	7.48e5	3.48e6	3.87e6	inactive	CG15040	DRSC19616
9.94e5	7.75e5	1.84e6	1.43e6	inactive	CG31752	DRSC22599
4.93e5	3.07e5	9.83e5	9.83e5	inactive	CG15040	DRSC29466
5.20e5	5.41e5	8.69e5	9.13e5	inactive	CG15040	DRSC21482
